Measurements reported in PubChem BioAssay AID504808 (Drosophila RNAi Screening Center, 2011).
The screen tested about 21,000 reagents; this is an unselected part of those with a known target gene and a result. Over the whole deposit, 18 (0.084%) got an active call. 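Raw counts without plate normalisation, one of two replicates; the ratio scores behind the calls were not deposited.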 Unmarked entries are inactive. Not given: the amount of reagent, the time to read-out.

- Purpose: 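Genes whose loss lifts activity of an E2F-responsive reporter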 (primary screen)
- Cells: Drosophila S2 cells
- Reagent: long dsRNA against Drosophila genes
- Detection: 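Firefly luciferase driven by E2F sites, normalised to Renilla luciferase on the same minimal promoter, measured by plate reader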
- Scale: E2F firefly: higher = more E2F reporter activity; Renilla normaliser: higher = more normaliser reporter signal
- Active means: 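Called active if the normalised E2F reporter went up by over 50%; the cutoff is arbitrary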

CG13002 (GeneID 32681) [DRSC19521] showed E2F firefly, rep 1 = 1.42e5; Renilla normaliser, rep 1 = 6066.
With knock-down of Mrp4 (GeneID 41387) [DRSC14931], the screen gave E2F firefly, rep 1 = 1.45e5; Renilla normaliser, rep 1 = 6754.
After knock-down of Prp5 (GeneID 32464) [DRSC19975], the screen gave E2F firefly, rep 1 = 1.51e5; Renilla normaliser, rep 1 = 5326.
Against CG9630 (GeneID 40974) [DRSC16527], the values are E2F firefly, rep 1 = 73220; Renilla normaliser, rep 1 = 3893.
After knock-down of CG13226 (GeneID 36184) [DRSC06346], the screen gave E2F firefly, rep 1 = 95788; Renilla normaliser, rep 1 = 4250.
Against CG5004 (GeneID 32698) [DRSC19929] the deposit lists E2F firefly, rep 1 = 1.51e5; Renilla normaliser, rep 1 = 6161.
Silencing of CG5004 (GeneID 32698) [DRSC19930] gave: E2F firefly, rep 1 = 2.29e5; Renilla normaliser, rep 1 = 7531.
With knock-down of CG5004 (GeneID 32698) [DRSC20123], the screen gave E2F firefly, rep 1 = 91115; Renilla normaliser, rep 1 = 6258.
After knock-down of CG10802 (GeneID 31318) [DRSC17762], the screen gave E2F firefly, rep 1 = 1762; Renilla normaliser, rep 1 = 864.
With knock-down of CG15126 (GeneID 50202) [DRSC06548], the record shows E2F firefly, rep 1 = 1.40e5; Renilla normaliser, rep 1 = 4854.

In a second layout: entries from further up
gene,dsRNA,"E2F firefly, rep 1","Renilla normaliser, rep 1"
CG5004 (GeneID 32698),DRSC19930,2.29e5,7531
CG5004 (GeneID 32698),DRSC20123,91115,6258
CG10802 (GeneID 31318),DRSC17762,1762,864
CG15126 (GeneID 50202),DRSC06548,1.40e5,4854

More entries follow:
Depletion of cn (GeneID 35724) [DRSC07594] gave: E2F firefly, rep 1 = 1.25e5; Renilla normaliser, rep 1 = 4956.
CG33160 (GeneID 326265) [DRSC08197] showed E2F firefly, rep 1 = 1.08e5; Renilla normaliser, rep 1 = 4910.
Knock-down of ppk20 (GeneID 43486) [DRSC16260] gave: E2F firefly, rep 1 = 1.23e5; Renilla normaliser, rep 1 = 6302.
Silencing of CG14971 (GeneID 38429) [DRSC08430] came out at: E2F firefly, rep 1 = 73433; Renilla normaliser, rep 1 = 3591.
Silencing of CG3546 (GeneID 31389) [DRSC18308] gave: E2F firefly, rep 1 = 82068; Renilla normaliser, rep 1 = 5145.
Knock-down of CG5757 (GeneID 37062) [DRSC06951] gave: E2F firefly, rep 1 = 66379; Renilla normaliser, rep 1 = 3435.
Against CG9313 (GeneID 37374) [DRSC04540], the values are E2F firefly, rep 1 = 98453; Renilla normaliser, rep 1 = 3829.
For stet (GeneID 38169) [DRSC08246], the values are E2F firefly, rep 1 = 98945; Renilla normaliser, rep 1 = 4336.
stet (GeneID 38169) [DRSC08283] gave E2F firefly, rep 1 = 1.03e5; Renilla normaliser, rep 1 = 3891.
Against Cyp9h1 (GeneID 36412) [DRSC07391], the entry reads E2F firefly, rep 1 = 97856; Renilla normaliser, rep 1 = 3723.
MESR4 (GeneID 36986) [DRSC06901] gave E2F firefly, rep 1 = 1.64e5; Renilla normaliser, rep 1 = 5381.
Depletion of olf413 (GeneID 40453) [DRSC11543] gave: E2F firefly, rep 1 = 94655; Renilla normaliser, rep 1 = 4449.
After knock-down of olf413 (GeneID 40453) [DRSC11679], the record shows E2F firefly, rep 1 = 1.35e5; Renilla normaliser, rep 1 = 6549.
With knock-down of olf413 (GeneID 40453) [DRSC11721], the record shows E2F firefly, rep 1 = 1.28e5; Renilla normaliser, rep 1 = 7340.
olf413 (GeneID 40453) [DRSC11833] gave E2F firefly, rep 1 = 1.35e5; Renilla normaliser, rep 1 = 6599.
Against RhoGAP71E (GeneID 39693) [DRSC10232] the deposit lists E2F firefly, rep 1 = 69904; Renilla normaliser, rep 1 = 3416.
Against RhoGAP71E (GeneID 39693) [DRSC10837], the entry reads E2F firefly, rep 1 = 1.08e5; Renilla normaliser, rep 1 = 5153.
RhoGAP71E (GeneID 39693) [DRSC10838] scored E2F firefly, rep 1 = 71132; Renilla normaliser, rep 1 = 3424.
